PubChem BioAssay AID1259266 – Sanger Institute | 2017
Test: 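Find knock-downs that kill LS123 cells or act with anchor drugs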 (primary screen). Cell system: LS123 human colorectal cancer cells. Knock-down reagent: siRNA pool against human genes. Challenge: anchor drugs BYL719 (1 µM), cetuximab (5 µg/ml) or trametinib (10 nM), each chosen to barely slow growth alone; DMSO vehicle as the drug-free arm. Read-out: 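Viability relative to non-targeting control pools, replicate mean, with a robust z-score for knock-down alone and synergy scores for each anchor drug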. Direction: robust z-score, knock-down alone: higher = more cells surviving after knock-down. Rule for the call: 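Essential when the robust z-score of the knock-down alone is below -3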. Calls: active = essential (knock-down alone cuts viability); inactive = no change.
This is an unselected part of 794 reagents tested. Over the whole deposit, 16 (2%) got an active call. 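Calls reflect knock-down alone, not drug synergy; viability seems capped at 1 and z-scores at 0.585.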 Unmarked entries are inactive. Not all columns of the deposit are shown. No sequences are given here. Not stated in the record: the amount of reagent, the time to read-out.

| gene symbol | robust z-score, knock-down alone |
| --- | --- |
| KDR | -0.754 |
| ULK4 | 0.585 |
| CDKL5 | 0.585 |
| PDK2 | -0.515 |
| CDK3 | -0.545 |
| TESK1 | -0.0311 |
| CTCF | -0.97 |
| CDKN1C | 0.585 |
| CASP8 | 0.585 |
| PAK3 | 0.517 |
| MINK1 | 0.585 |
| KCNH8 | 0.585 |
| CAD | 0.585 |
| TJP2 | 0.585 |
| CDKL4 | -0.994 |
| PDK3 | -0.675 |
| PRKAA2 | 0.585 |
| SCYL3 | -1.41 |
| MAGI3 | 0.585 |
| MPP3 | -4.04 (active) |
